Assay [1] has as its target BODIPY-β-annulus peptide (tomato bushy stunt virus). Kind of assay: fluorescence correlation spectroscopy (FCS); 0.1 μM BODIPY-β-annulus peptide with 0~200 μM β-annulus peptide in 10 mM Tris-HCl buffer (pH 7.0) with 5 wt% PEG2000, 25 °C; ratio of the slow component fitted to the Hill equation; both purified.
For assay [2] the target is unchanged. Kind of assay: fluorescence correlation spectroscopy (FCS); 0.1 μM BODIPY-β-annulus peptide with 0~200 μM β-annulus peptide in 10 mM Tris-HCl buffer (pH 7.0), sonicated 10 min, incubated 30 min, 25 °C; ratio of the slow component fitted to the Hill equation; apparent Kd; both purified.

No constants are given. Whether binding was seen depends on the method and setting.

As for CINHVGGTGGAIMAPVAVTRQLVGS (BODIPY-maleimide added by Michael addition to the thiol of the N-terminal Cys) [BODIPY-β-annulus peptide], the binding result in assay [1] and in assay [2] was “no binding (tested: 0.1 μM)” throughout.

The values are drawn from PMC8125178, “Fluorescence Correlation Spectroscopy Analysis of Effect of Molecular Crowding on Self-Assembly of β-Annulus Peptide into Artificial Viral Capsid” (International Journal of Molecular Sciences, 2021).
